According to US20050256171A1, “Pyrrolidine derivatives as tryptase inhibitors” (Altana Pharma A G, priority 2002, published 2005):
Where a name gives a salt, the structure may show the parent alone. At least one compound was matched to its structure with a doubt left.

Target: human tryptase
Experiment: Inhibition of human tryptase (apparent dissociation constant, chromogenic substrate tos-Gly-Pro-Arg-pNA)
Format: biochemical
Conditions: pKiapp = -log Kiapp (mol/l); in the presence of substrate; heparin 0.1-50 μg/ml
Excerpt: The documented pathophysiological effects of mast cell tryptase are brought about directly by the enzymatic activity of the protease. Accordingly, they are reduced or blocked by inhibitors which inhibit the enzymatic activity of tryptase. A suitable measure of the affinity of a reversible inhibitor for the target protease is the equilibrium dissociation constant Ki of the enzyme/inhibitor complex. This value of Ki can be determined via the influence of the inhibitor on the tryptase-induced cleavage of a chromogenic peptide-p-nitroanilide substrate or of a fluorogenic peptide-aminomethylcoumarin substrate.
The dissociation constants for the tryptase/inhibitor complexes are determined under equilibrium conditions in accordance with the general proposals of Bieth (Bieth J G, Pathophysiological Interpretation of kinetic constants of protease inhibitors, Bull. Europ. Physiopath. Resp. 16:183-195,1980) and the methods of Sommerhoff et al. (Sommerhoff C P et al., A Kazal-type Inhibitor of human mast cell tryptase: Isolation from the medical leech Hirudo medicinalis, characterization, and sequence analysis, Biol. Chem. Hoppe-Seyler 375: 685-694, 1994).
Human tryptase is prepared pure from lung tissue or is prepared by recombination; the specific activity of the protease which has been determined by titration is normally more than 85% of the theoretical value. […]

Row | SMILES | pKiapp
1 | COC(=O)Cc1cc(C#CCOC(=O)NCc2cccc(CN)c2)cc(C#CCOC(=O)NC2CC(C(=O)OC)N(C(=O)CCc3cccc(CN)c3)C2)c1 (centres unmarked) [Compound 1, Methyl 4-(3-{3-[3-(3-aminomethylbenzylcarbonyloxy)prop-1-ynyl]-5-methoxy-carbonyl-methylphenyl}prop-2-ynyloxycarbonylamino)-1-[3-(3-aminomethylphenyl)-propanoyl]-pyrrolidine-2-carboxylate dihydrochloride] | 8.62
2 | COC(=O)Cc1cc(C#CCOC(=O)NCc2cccc(CN)c2)cc(C#CCOC(=O)NC2CC(C(=O)OC)N(C(=O)CCc3ccc(CN)cc3)C2)c1 (centres unmarked) [Compound 2, Methyl 4-(3-{3-[3-(3-aminomethylbenzylcarbonyloxy)prop-1-ynyl]-5-methoxy-carbonyl-methylphenyl}prop-2-ynyloxycarbonylamino)-1-[3-(4-aminomethylphenyl)-propanoyl]-pyrrolidine-2-carboxylate dihydrochloride] | 8.27
